Data from PubChem BioAssay AID2551 (National Center for Advancing Translational Sciences (NCATS), 2010).
Among all 310,000 compounds or so, about 17,000 (5.5%) were called active. This list was built around the results that the source calls inconclusive (neither active nor inactive); the mix of calls is not that of the screen. Calls follow the shape of the dose curve; as a rule, active = well fitted inhibition curve with a large enough effect; inconclusive = small, poorly fitted or top-dose-only effect, or effect the other way; inactive = no such curve, though single readings can be large or run the other way. Where the call is inconclusive, the potency comes from a doubtful curve fit.

Protein sequences, listed by entry. Tags and fused reporters are not part of them. Lines headed by an entry give the natural chain unless they say otherwise; changes in a name come on top.
UniProt P51450: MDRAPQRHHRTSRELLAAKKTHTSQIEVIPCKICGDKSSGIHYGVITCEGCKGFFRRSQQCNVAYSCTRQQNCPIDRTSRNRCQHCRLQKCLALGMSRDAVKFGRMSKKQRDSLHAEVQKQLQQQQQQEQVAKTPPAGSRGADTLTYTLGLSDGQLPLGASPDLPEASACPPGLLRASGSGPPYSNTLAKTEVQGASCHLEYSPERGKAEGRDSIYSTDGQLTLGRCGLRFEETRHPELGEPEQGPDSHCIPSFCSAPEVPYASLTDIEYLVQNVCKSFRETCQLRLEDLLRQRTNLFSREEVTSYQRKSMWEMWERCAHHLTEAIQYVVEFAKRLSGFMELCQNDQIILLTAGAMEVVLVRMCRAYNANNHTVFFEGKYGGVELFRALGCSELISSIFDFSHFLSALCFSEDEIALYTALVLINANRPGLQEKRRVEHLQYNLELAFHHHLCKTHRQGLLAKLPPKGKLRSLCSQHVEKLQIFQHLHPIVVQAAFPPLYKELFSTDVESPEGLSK

Target: Nuclear receptor ROR-gamma (Mus musculus) (UniProt P51450)
Experiment: qHTS for inhibitors of ROR gamma transcriptional activity; also: nearly all actives have a fitted effect of over 60% in size
Details: Drosophila S2 Gal4-RORgamma UAS-luciferase reporter, 20 h; activity change, negative = inhibition: at 53.6 µM (top of the series)
Procedure, shortened: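 In this cell-based reporter format, copper sulfate (700 uM final) drives Gal4–ROR gamma fusion expression from a metallothionein promoter in Drosophila Schneider cells; compounds preincubated 1 hr, reporter read after 20 hr at ambient temperature.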
% is scaled to controls: 0 for no effect and ±100 for the full control effect; potency is read from the fitted curve at half-maximal effect.

Potency, inactive:
C[C@@H]1Cc2c(O)c(O)cc(O)c2C(=O)O1
COCCNC(=O)Nc1ccc(F)cc1
Cc1cccc2[nH]c(CN(C)C(=O)CC3C(=O)NCCN3CC(C)(C)C)nc12 (stereo not drawn)
CCc1ccc(CN(C(=O)COc2c(C)cccc2C)C2CCS(=O)(=O)C2)cc1 (stereo not drawn)
CCOC(=O)c1ccc(NC(=O)CSc2nccn2C)cc1
O=[N+]([O-])c1cc(-c2cnc3ccccc3n2)ccc1Cl
CCOc1ccc(S(=O)(=O)N(C)CC(=O)NCc2ccco2)cc1
Cc1ccc2nc(SCC(=O)c3ccc(O)cc3O)[nH]c2c1
COc1ccc(CNC(=O)[C@H](C)NC(=O)[C@@H]2Cc3ccccc3CN2)cc1
COc1ccc(Nc2nc(N)nc(COc3ccc(OC)cc3)n2)cc1
C=CCN(CC=C)C(=O)c1ccc(OC2CCN(Cc3ccccn3)CC2)cc1
CCCCCC[N+](C)(C)CC/C=C1/c2ccccc2Sc2ccc(Cl)cc21
Cc1cc(C(=O)Nc2c(C)nn(Cc3ccc(Cl)cc3)c2C)no1
CCOC(=O)Cn1ccc(-c2ccccc2)c(C#N)c1=O
CCN(CC)c1ccc2cc(C(=O)Nc3cccnc3N3CCOCC3)c(=O)oc2c1

Potency, inconclusive:
CN(CC(=O)Nc1ccccc1Br)c1ncnc2sccc12 35.5 µM [activator, single point]
COc1ccccc1C(=O)NC1CCCCCCC1 7.94 µM [activator, partial curve, poor fit]
CCCOc1cccc(OCCSc2nc(C)cc(=O)[nH]2)c1 17.8 µM [activator, partial curve, poor fit]
COc1cc2c(cc1OC)-c1cc(NC3CCCCCC3)nc(=O)n1CC2 15.8 µM [inhibitor, partial curve]
COc1ccc(-c2cc(Nc3ccccc3NC(=O)C(F)(F)F)n(CCC#N)n2)cc1 14.1 µM [activator, partial curve, poor fit]
O=C(/C(=C/c1ccncc1)n1ccnc1)c1ccc(Cl)cc1Cl 12.6 µM [activator, partial curve]
CC(c1ccco1)N(C(=O)c1ccccc1NS(=O)(=O)c1cccc([N+](=O)[O-])c1)c1ccccn1 (stereo not drawn) 14.1 µM [activator, partial curve]
CCCC(=O)NC(c1ccccc1)c1ccc2cccnc2c1O (stereo not drawn) 1.26 µM [inhibitor, single point]
Cc1cccc(N(C(=O)CCC(=O)Nc2cc(C)on2)C(C(=O)NC2CCCC2)c2ccccc2)c1 (stereo not drawn) 0.794 µM [inhibitor, single point]
O=S(=O)(Nc1ccc(-c2csc(-c3ccccc3)n2)cc1)c1ccccc1 35.5 µM [activator, single point]
CCOc1cc(/C=N/N2C(=O)NC3(CCCCC3)C2=O)cc(Br)c1O 35.5 µM [activator, single point]
COc1ccccc1Nc1nc(N)nc(CN2CCN(c3ccccc3)CC2)n1 12.6 µM [inhibitor, partial curve, poor fit]
O=C(N/N=C/c1sc(N2CCOCC2)nc1-c1ccccc1)c1cccc(S(=O)(=O)N2CCOCC2)c1 6.31 µM [inhibitor, full curve, poor fit]
CN(CCC#N)C(=O)COC(=O)[C@H](Cc1ccccc1)N1C(=O)c2ccccc2C1=O 0.112 µM [inhibitor, full curve, poor fit]
COc1cc(/C=C/C(=O)c2ccc(NS(=O)(=O)c3ccc(C)cc3)cc2)cc(OC)c1O 20 µM [inhibitor, single point]
CCc1cccc(NC(=O)Cn2cc3c(n2)CCCC3)c1 10 µM [inhibitor, single point]
Cn1c(Cn2c(=O)sc3ccccc32)nnc1SCC(=O)N1CCCC1 0.1 µM [activator, full curve, poor fit]
COc1ccc(NC(=O)CC2C(=O)N(C)C(=S)N2Cc2ccncc2)cc1 (stereo not drawn) 12.6 µM [activator, partial curve]
O=C(O)CC1(CC(=O)NCc2ccc(-c3cccs3)cc2)CCCCC1 35.5 µM [inhibitor, single point]
CN(Cc1cccs1)C(=O)Cc1c[nH]c2ccccc12 20 µM [activator, single point]
COc1ccc(C(=O)NCc2nnc(SCC(=O)Nc3nnc(C)s3)o2)cc1 17.8 µM [inhibitor, single point]
O=C(CCCc1nc(-c2ccccc2Cl)no1)NCc1cccnc1 5.62 µM [inhibitor, single point]
Fc1ccc(NC(=S)Nc2cc(Cl)ccc2Cl)cc1 35.5 µM [inhibitor, single point]
COc1cccc(/C=N/n2c(-c3n[nH]c4c3CCC4)n[nH]c2=S)c1O 28.2 µM [inhibitor, single point]
Cc1ccc(S(=O)(=O)Nc2ccc(NC(=O)Nc3ccc(F)cc3F)cc2)cc1 11.2 µM [activator, partial curve]
Cc1cc(N2CCCC2=O)ccc1S(=O)(=O)NC1CCCCC1 17.8 µM [activator, partial curve]
CC(Oc1ccc(F)cc1)C(=O)NN (stereo not drawn) 11.2 µM [inhibitor, single point]
Cc1ccc(NC(=S)NCc2ccccc2)cc1[N+](=O)[O-] 14.1 µM [inhibitor, single point]
Cc1ccccc1C(=O)N1CCN(c2ccc(NC(=O)c3ccc4c(c3)OCO4)cc2)CC1 12.6 µM [activator, single point]
CSCC(=O)N1CCCC(C(=O)c2cc(F)ccc2F)C1 (stereo not drawn) 10 µM [activator, partial curve]
Cc1cc(C)n(S(=O)(=O)c2cc(C)c(C)cc2C)n1 15.8 µM [inhibitor, single point]
Cc1cc(C)c(C(=O)/C=C/c2ccc(C(C)C)cc2)c(=O)[nH]1 35.5 µM [inhibitor, single point]
CCn1c(CCNC(=O)c2cccs2)nnc1SCC(=O)Nc1ccc(Cl)cc1 11.2 µM [activator, partial curve]
c1ccc(COc2ccc(CNn3cnnc3)cc2)cc1 35.5 µM [activator, single point]
CSc1ccccc1NC(=S)N/N=C/c1cccn1Cc1ccc(F)cc1 0.631 µM [inhibitor, single point]
Cc1ccc(C(=O)COC(=O)c2ccc(O)cc2)cc1 8.91 µM [inhibitor, partial curve]
O=C(N/N=C/c1ccc2c(c1)OCO2)c1cccc(NC(=O)c2ccccc2Cl)c1 5.62 µM [activator, single point]
CC1(C)Oc2ccc3ccc(=O)oc3c2/C(=C/Nc2ccccn2)C1=O 22.4 µM [inhibitor, single point]
CC[C@@H](C(=O)[C@@H](C)[C@@H](O)[C@H](C)CCc1ccc(C)c(O)c1C(=O)O)[C@H]1O[C@](CC)([C@H]2CC[C@](O)(CC)[C@H](C)O2)C[C@@H]1C 31.6 µM [inhibitor, single point]

Three consecutive records out of the list so far:
Potency, inconclusive:
COc1cccc(/C=N/n2c(-c3n[nH]c4c3CCC4)n[nH]c2=S)c1O 28.2 µM [inhibitor, single point]
Cc1ccc(S(=O)(=O)Nc2ccc(NC(=O)Nc3ccc(F)cc3F)cc2)cc1 11.2 µM [activator, partial curve]
Cc1cc(N2CCCC2=O)ccc1S(=O)(=O)NC1CCCCC1 17.8 µM [activator, partial curve]

Following part.

Potency, active:
Cc1ccsc1/C=N/NC(=O)c1ccc2ccccc2c1 3.16 µM
CSc1ccccc1NC(=S)N/N=C/c1cccn1Cc1cccc(C)c1 0.891 µM
CC1(C)Nc2ccc(O)cc2-c2c1ssc2=S 8.91 µM
COc1cccc(/C=N/NC(=O)C(=O)N2CCCCCC2)c1O 7.94 µM
COc1ccc(OC)c(NC(=S)N2CCC(C(O)(c3ccccc3)c3ccccc3)CC2)c1 15.8 µM
CC1=NN(C(=O)Cn2nc([N+](=O)[O-])c(Br)c2C)C(O)(C(F)(F)F)C1 (stereo not drawn) 10 µM
COC(=O)N/N=C/c1cc(N=Nc2ccccc2)ccc1O 1.12 µM
Cc1cc(N/N=C/c2cccc([N+](=O)[O-])c2)nc(-n2nc(C)cc2C)n1 0.112 µM
O=C(NC(=S)N1CCN(c2nc(-c3ccccc3)cs2)CC1)c1cccnc1 0.112 µM
O=C(CCCN1C(=O)/C(=C/c2ccc(F)cc2)SC1=S)NCCCn1ccnc1 8.91 µM
CN(C)c1ccc(-c2n[nH]c(=S)n2-c2ccccc2)cc1 2.24 µM
CCC1S/C(=N/N=C/c2ccco2)NC1=O (stereo not drawn) 1.26 µM
O=C(c1ccco1)N(Cc1nc2ccccc2c(=O)[nH]1)C1CCCC1 1.58 µM
C=CCNC(=S)NN=C1CCC(c2ccccc2)CC1 (stereo not drawn) 12.6 µM
O=C(CSc1nnc(-c2ccccc2O)o1)N1CCc2ccccc2C1 10 µM
Cc1ccc2oc(-c3ccccc3)c(C(=O)O)c(=O)c2c1 7.08 µM
COC(=O)c1ccc(C(=O)NC(=S)Nc2nc3c(s2)CC(C)CC3)cc1 (stereo not drawn) 1 µM
COC(=O)c1cn[nH]c1NC(=S)Nc1ccccc1C 5.62 µM

Activity change, negative = inhibition, inactive:
O=C(CCCc1ccccc1)Nc1cccc([N+](=O)[O-])c1 -12.1% [at 1.91 µM]
